{
  "source": "patent US9381175B2",
  "about": "“Method for treating Chikungunya virus infection” (priority 2014, dated 2016)",
  "tested_on": "cell fusion of Sf21 cells infected with CS-WT viruses (CHIKV)",
  "experiment": "Cell fusion assay, Sf21 cells infected with recombinant baculovirus CS-WT",
  "details": "screening of drug library, antiviral agents and synthetic peptides, data not shown",
  "note": "At least one compound was matched to its structure with a doubt left.",
  "data": [
    {"compound": "CCOC(=O)c1c(CSc2ccccc2)n(C)c2cc(Br)c(O)c(CN(C)C)c12", "note": "[arbidol]", "values": [
      {"measurement": "inhibition of cell fusion induced by CS-WT infection, primary screening", "result": "failed to inhibit the cell fusion"}
    ]}
  ]
}
